Data from ChEMBL document CHEMBL2062492, “Boron-Based 4-Hydroxytamoxifen Bioisosteres for Treatment of de Novo Tamoxifen Resistant Breast Cancer” (ACS Med Chem Lett, 2012).

Tested on: T47D
Assay: Cytotoxicity against human T47D cells after 5 days
Format: functional, cell-based
Conditions: 120 h

CC/C(=C(\c1ccccc1)c1ccc(OCCN(C)C)cc1)c1ccccc1 [TAMOXIFEN]
IC50: 1130 nM
